Assay results taken from PMC6267337.
No constants are given. Whether binding was seen depends on the method and setting. Sequences can lack the tags named with a protein.

Target: recombinant human pancreatic lipase fused to Strep-tag II (recHPL–ST II) (human) (UniProt P16233)
Test: SEC; gel-filtration FPLC of refolded recHPL on HiPrep 16/60 Sephacryl S-200 HR; 10 mM phosphate buffer pH 8.0, 150 mM NaCl, 400 mM L-Arg; 0.5 ml/min; 4°C; fractions also checked by non-reducing SDS-PAGE, western blot and lipolytic activity; both purified

binding: no binding
B1: recombinant human pancreatic lipase fused to Strep-tag II (recHPL–ST II) (enzyme, UniProt P16233 17-465)
chain: MKEVCYERLGCFSDDSPWSGITERPLHILPWSPKDVNTRFLLYTNENPNNFQEVAADSSSISGSNFKTNRKTRFIIHGFIDKGEENWLANVCKNLFKVESVNCICVDWKGGSRTGYTQASQNIRIVGAEVAYFVEFLQSAFGYSPSNVHVIGHSLGAHAAGEAGRRTNGTIGRITGLDPAEPCFQGTPELVRLDPSDAKFVDVIHTDGAPIVPNLGFGMSQVVGHLDFFPNGGVEMPGCKKNILSQIVDIDGIWEGTRDFAACNHLRSYKYYTDSIVNPDGFAGFPCASYNVFTANKCFPCPSGGCPQMGHYADRYPGKTNDVGQKFYLDTGDASNFARWRYKVSVTLSGKKVTGHILVSLFGNKGNSKQYEIFKGTLKPDSTHSNEFDSDVDVGDLQMVKFIWYNNVINPTLPRVGASKIIVETNVGKQFNFCSPETVREEVLLTLTPC
